The values below come from PMC11643641.

These are yes or no findings as the source states them, for the method shown. Binding seen in cells or lysates may run through a third protein. These calls come from enrichment with a bait or labelling near it, and not all partners need be listed.

This assay deals with Caspar (Casp), Drosophila orthologue of human Fas-associated factor-1 (FAF1) (D. melanogaster (endogenous in 0-3 hr embryos)). Put plainly: affinity purification with mass spectrometry; immunoprecipitation with rabbit anti-Casp antibody (cross-linked to Protein A SureBeads with DMP) from 0-3 hr embryonic lysates in Co-IP Lysis Buffer (20 mM Tris pH 8.0, 137 mM NaCl, 1% IGEPAL, 2 mM EDTA), 4 °C; normal rabbit IgG IP as control; in-gel trypsin digestion, LC-MS/MS.

B1: vesicle-associated membrane protein-associated protein B (VAPB/VAP33A) (protein, UniProt Q9W4N8 1-269)
chain: MSKSLFDLPLTIEPEHELRFVGPFTRPVVTIMTLRNNSALPLVFKIKTTAPKRYCVRPNIGKIIPFRSTQVEICLQPFVYDQQEKNKHKFMVQSVLAPMDADLSDLNKLWKDLEPEQLMDAKLKCVFEMPTAEANAENTSGGGAVGGGTGAAGGGSAGANTSSASAEALESKPKLSSEDKFKPSNLLETSESLDLLSGEIKALRECNIELRRENLHLKDQITRFRSSPAVKQVNEPYAPVLAEKQIPVFYIAVAIAAAIVSLLLGKFFL
As for B1, the binding result is “binds”.

B2: Maternal expression at 31B (Me31B) (protein, UniProt P23128 1-459)
chain: MMTEKLNSGHTNLTSKGIINDLQIAGNTSDDMGWKSKLKLPPKDNRFKTTDVTDTRGNEFEEFCLKRELLMGIFEKGWERPSPIQEAAIPIALSGKDVLARAKNGTGKTGAYCIPVLEQIDPTKDYIQALVMVPTRELALQTSQICIELAKHLDIRVMVTTGGTILKDDILRIYQKVQLIIATPGRILDLMDKKVADMSHCRILVLDEADKLLSLDFQGMLDHVILKLPKDPQILLFSATFPLTVKNFMEKHLREPYEINLMEELTLKGVTQYYAFVQERQKVHCLNTLFSKLQINQSIIFCNSTQRVELLAKKITELGYCCYYIHAKMAQAHRNRVFHDFRQGLCRNLVCSDLFTRGIDVQAVNVVINFDFPRMAETYLHRIGRSGRFGHLGIAINLITYEDRFDLHRIEKELGTEIKPIPKVIDPALYVANVGASVGDTCNNSDLNNSANEEGNVSK
Regarding B2, the binding entry was “binds”.
